Data as given in PubChem BioAssay AID504467 (National Center for Advancing Translational Sciences (NCATS), 2011).
Hit rate of the full screen: of about 330,000 compounds, about 7,700 (2.3%) were called active. This list was built around the results that the source calls inconclusive (neither active nor inactive); the mix of calls is not that of the screen. The call rests on the fitted dose curve; in most records, active means well fitted inhibition curve with a large enough effect; inconclusive means small, poorly fitted or top-dose-only effect, or effect the other way; inactive means flat fitted curve, though single readings scatter. Potencies of inconclusive entries are doubtful fits and often do not repeat.

Test: qHTS screen for small molecules that inhibit ELG1-dependent DNA repair in human embryonic kidney (HEK293T) cells expressing luciferase-tagged ELG1; further: nearly all actives have a fitted effect of over 55% in size
Conditions: HEK293T ELG1-luciferase reporter, luminescence, 16 h, DNA damage induced by 5-fluorouridine; series mostly up to 46.1 µM
Outline: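 Overnight (16 hr) co-exposure of 2,000 cells/well to 5-fluorouridine and compound at 37 °C preceded detection. Luciferase was quantified via ONE-Glo luminescence; loss of signal denotes inhibition.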
Potency means the concentration at half of the fitted maximal effect.

SMILES	Potency
O=C(/C=C/c1cccc(Cl)c1)Nc1ccncc1	inconclusive: 23.1 µM [activator, single point]
O=C(C[C@H]1C/C=C\C[C@@H](Cc2ccc(F)cc2)C(=O)OC[C@@H]2CCCN2C1=O)NCCO	inactive
CC(C)c1ccc(NC(=O)c2ccccc2NC(=O)C2CCCCC2C(=O)O)cc1 (stereo not given)	inconclusive: 16.4 µM [activator, partial curve]
CC1CCN(c2ccc(NC(=S)NC(=O)c3ccc(-c4cccc([N+](=O)[O-])c4)o3)cc2)CC1	inconclusive: 3.66 µM [inhibitor, partial curve, poor fit]
COc1ccc(NC(=S)N(CCN(C)C)C(C)c2ccco2)cc1Cl (stereo not given)	inactive
COC(=O)c1ccccc1NC(=O)C(C)Oc1ccccc1 (stereo not given)	inactive
CCNC(=S)NS(=O)(=O)c1ccc(CC)cc1	inactive
O=C(NC1CCN(Cc2ccccc2)CC1)c1cccc(S(=O)(=O)Nc2ccc(Br)cc2)c1	inactive
O=C(Nc1ccc2c(c1)OCCO2)C(=O)NC1CC1	inconclusive: 14.6 µM [activator, partial curve]
Cc1ccc(CNS(=O)(=O)c2c(C)[nH]c(C)c2C(=O)N2CCCC2)cc1	inactive
O=C(COc1ccc(C(=O)Nc2ccc(Cl)cc2)cc1)NCc1ccccc1	inconclusive: 29.1 µM [activator, single point]
Cc1ccc(-n2c(C)cc(C(=O)CSc3nncs3)c2C)cc1	inconclusive: 2.82 µM [inhibitor, single point]
O=C(c1cc(-c2ccc(F)cc2)on1)N1CCOCC1	inconclusive: 5.8 µM [activator, partial curve]
CN(C)c1ccc(/C=N/NC(=O)c2cccc(C(=O)N/N=C/c3ccc(N(C)C)cc3)n2)cc1	inactive
NNC(=O)Nc1cccc(C(F)(F)F)c1	inactive
N/C(=N\OC(=O)CCC1CCCCC1)c1cccc([N+](=O)[O-])c1	inconclusive: 29.1 µM [activator, single point]
CCc1ccc(C(=O)Nc2nc(C)cs2)s1	inconclusive: 0.82 µM [activator, partial curve]
O=C(NCCN1CCOCC1)c1cccc2c1C(=O)c1ccc(N3CCCC3)cc1S2(=O)=O	inconclusive: 2.91 µM [activator, partial curve]
COc1ccc(N2C(=O)c3ccccc3NC2c2ccc(OC)c(COc3ccccn3)c2)cc1 (stereo not given)	inconclusive: 13 µM [activator, partial curve]
Cc1ccc(C(=O)NC(CCc2ccccc2)C(=O)O)cc1 (stereo not given)	inconclusive: 11.6 µM [activator, single point]

Shown as labelled records: part of the list above.
O=C(/C=C/c1cccc(Cl)c1)Nc1ccncc1
  Potency: inconclusive: 23.1 µM [activator, single point]
COc1ccc(NC(=S)N(CCN(C)C)C(C)c2ccco2)cc1Cl (stereo not given)
  Potency: inactive
